Laboratory results: PMC8092294

Chains of the proteins cited; added tags and fusions are not shown.
UniProt Q9U0K8: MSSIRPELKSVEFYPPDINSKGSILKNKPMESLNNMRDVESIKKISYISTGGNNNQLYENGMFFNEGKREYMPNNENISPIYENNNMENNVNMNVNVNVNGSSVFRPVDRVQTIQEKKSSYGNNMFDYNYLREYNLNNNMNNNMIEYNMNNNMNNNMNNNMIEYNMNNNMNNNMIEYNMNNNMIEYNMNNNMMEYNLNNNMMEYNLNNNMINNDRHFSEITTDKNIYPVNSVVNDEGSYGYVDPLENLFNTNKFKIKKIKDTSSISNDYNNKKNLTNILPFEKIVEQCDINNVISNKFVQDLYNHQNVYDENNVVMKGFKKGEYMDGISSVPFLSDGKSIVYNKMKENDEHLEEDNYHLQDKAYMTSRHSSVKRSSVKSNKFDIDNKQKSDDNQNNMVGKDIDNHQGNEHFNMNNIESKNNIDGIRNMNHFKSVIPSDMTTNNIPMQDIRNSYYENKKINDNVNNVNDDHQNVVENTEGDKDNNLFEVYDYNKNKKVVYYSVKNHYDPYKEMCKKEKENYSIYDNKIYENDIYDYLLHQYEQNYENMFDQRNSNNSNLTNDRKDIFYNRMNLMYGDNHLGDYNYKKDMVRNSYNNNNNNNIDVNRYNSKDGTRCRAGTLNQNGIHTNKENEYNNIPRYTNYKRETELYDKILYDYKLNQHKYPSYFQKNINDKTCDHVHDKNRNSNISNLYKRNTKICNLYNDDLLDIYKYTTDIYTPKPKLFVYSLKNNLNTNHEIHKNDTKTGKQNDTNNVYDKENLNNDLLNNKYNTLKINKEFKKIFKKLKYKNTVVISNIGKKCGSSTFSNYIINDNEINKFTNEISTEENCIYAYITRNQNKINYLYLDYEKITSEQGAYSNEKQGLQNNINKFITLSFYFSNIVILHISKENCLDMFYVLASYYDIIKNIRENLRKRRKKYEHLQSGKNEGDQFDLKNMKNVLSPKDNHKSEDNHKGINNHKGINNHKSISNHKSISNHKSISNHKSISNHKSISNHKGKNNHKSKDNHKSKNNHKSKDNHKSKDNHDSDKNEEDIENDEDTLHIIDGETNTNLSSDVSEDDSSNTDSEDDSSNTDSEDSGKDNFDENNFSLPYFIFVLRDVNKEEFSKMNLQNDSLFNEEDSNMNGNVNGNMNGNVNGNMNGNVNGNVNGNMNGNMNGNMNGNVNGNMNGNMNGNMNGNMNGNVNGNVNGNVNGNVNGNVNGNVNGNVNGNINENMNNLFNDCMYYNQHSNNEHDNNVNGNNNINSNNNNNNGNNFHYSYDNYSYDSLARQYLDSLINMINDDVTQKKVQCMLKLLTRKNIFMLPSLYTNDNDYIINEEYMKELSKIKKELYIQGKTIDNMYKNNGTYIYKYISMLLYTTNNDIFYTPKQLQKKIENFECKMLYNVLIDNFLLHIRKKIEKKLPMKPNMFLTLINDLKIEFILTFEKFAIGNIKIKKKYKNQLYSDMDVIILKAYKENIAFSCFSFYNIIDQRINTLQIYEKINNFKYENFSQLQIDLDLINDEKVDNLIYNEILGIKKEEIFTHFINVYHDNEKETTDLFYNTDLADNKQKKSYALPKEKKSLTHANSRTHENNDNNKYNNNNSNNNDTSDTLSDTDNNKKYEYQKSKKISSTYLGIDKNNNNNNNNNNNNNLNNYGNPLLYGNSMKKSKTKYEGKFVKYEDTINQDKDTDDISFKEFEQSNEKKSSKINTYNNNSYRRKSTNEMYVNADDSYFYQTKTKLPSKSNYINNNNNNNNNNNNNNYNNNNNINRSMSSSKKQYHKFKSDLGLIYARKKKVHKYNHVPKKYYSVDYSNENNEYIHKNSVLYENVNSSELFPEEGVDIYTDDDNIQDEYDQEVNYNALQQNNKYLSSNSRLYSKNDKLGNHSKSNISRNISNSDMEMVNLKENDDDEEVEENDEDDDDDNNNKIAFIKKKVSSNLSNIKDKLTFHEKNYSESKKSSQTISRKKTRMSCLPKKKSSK

Biological target: schizont egress antigen-1 with a C-terminal HA3 epitope tag (SEA1-HA3) (P. falciparum)
Test: affinity purification with mass spectrometry; RIPA lysates of saponin-released early schizonts (~40 h) of DMSO- or RAP-treated (SEA1-null control) SEA1-HA:loxP parasites, loaded in triplicate on anti-HA magnetic beads, 4°C, 1 h; eluted in SDS sample buffer; in-gel tryptic digestion, Orbitrap, MaxQuant iBAQ

With “P. falciparum coordinator of nascent cell detachment (CINCH) (from UniProt Q9U0K8 1-1960)” the binding was “binds”.

No constants are given. Whether binding was seen depends on the method and setting. In cells and extracts the contact can be indirect. These calls come from enrichment with a bait or labelling near it, and not all partners need be listed.
